Publication PMC9007350, “Aurintricarboxylic acid is a canonical disruptor of the TAZ-TEAD transcriptional complex” (PLoS ONE, 2022)
The source gives many values for each of these; only a part stands here.

Test system: TC/TEAD transcriptional profile in TC-expressing NIH3T3 cells
Test: Bulk RNA-Seq, differential gene expression and GSEA (TC ATA v. TC DMSO)
Format: cell-based, murine
Settings: TC ATA v. TC DMSO
Protocol: NIH3T3 and HEK293 cells were obtained from the American Type Tissue Collection (ATCC, Manassas, VA) and cultured in DMEM containing 10% fetal bovine serum and penicillin/streptomycin. A TEAD dual luciferase reporter assay was performed as previously described. Cells were treated with vehicle control or ATA (10 μM) for 48 h before measuring the luciferase activity or processing the samples for RNA extraction. Each experiment was repeated at least 2-3 times. NIH3T3 cells were used. The extracted RNA (RNeasy Mini, Qiagen) from treated cells was either used for qPCR measurements or sent for bulk RNA-Seq. Sequencing runs were performed on an Illumina HiSeq 4000 sequencer (Genewiz). Subsequent bioinformatics analysis was performed in the Galaxy Project platform. Paired end reads were aligned to the murine genome ([…]2 [27]. Raw count files were generated with featureCounts using a corresponding GTF reference. Differential gene expression analysis was performed with DESeq2 [29]. Transcripts were considered to be differentially expressed if the false discovery rate < 0.05 and Log2FC > 2. When performing differential gene expression for GSEA analysis, the Limma package was used (<5 CPM filtering) with t-scores used for rank statistics. GSEA plots and statistics were generated with FGSEA with custom gene sets. Raw sequencing reads and processed files have been deposited in the GEO repository (data will be uploaded upon manuscript acceptance). The Universal Probe Library probes (Roche) and the associated primer sequences for the qPCR targets are listed below: […]

O=C(O)C1=CC(=C(c2ccc(O)c(C(=O)O)c2)c2ccc(O)c(C(=O)O)c2)C=CC1=O [ATA, aurintricarboxylic acid]
Log2 Fold Change (gene Sash1): 0.4374 | Log2 Fold Change (gene Sbno2): -0.2738 | Log2 Fold Change (gene Scn1b): 0.5322 | Log2 Fold Change (gene Scx): -1.24 | Log2 Fold Change (gene Sec16b): 0.691 | Log2 Fold Change (gene Selenoh): -0.6572 | Log2 Fold Change (gene Selenot): -0.2262 | Log2 Fold Change (gene Sema3f): 0.2183 | Log2 Fold Change (gene Sema4b): -0.4334 | Log2 Fold Change (gene Sema5a): -0.3616 | Log2 Fold Change (gene Serpinb1a): 0.9856 | Log2 Fold Change (gene Serpinb8): 0.6539 | Log2 Fold Change (gene Serpine1): -0.3094 | Log2 Fold Change (gene Serpinf1): 0.245 | Log2 Fold Change (gene Serping1): 0.7616 | Log2 Fold Change (gene Shmt1): -0.2221 | Log2 Fold Change (gene Sipa1): -0.284 | Log2 Fold Change (gene Sipa1l2): 0.2601 | Log2 Fold Change (gene Slc1a3): 0.855 | Log2 Fold Change (gene Slc16a3): 0.4856 | Log2 Fold Change (gene Slc22a23): 0.3295 | Log2 Fold Change (gene Slc23a2): 0.2819 | Log2 Fold Change (gene Slc25a16): 0.303 | Log2 Fold Change (gene Slc27a1): 0.4471 | Log2 Fold Change (gene Slc40a1): 0.5566 | Log2 Fold Change (gene Slc41a1): -0.3149 | Log2 Fold Change (gene Smad6): 0.7047 | Log2 Fold Change (gene Smad9): 1.326 | Log2 Fold Change (gene Smchd1): -0.2003 | Log2 Fold Change (gene Smim14): 0.4189 | Log2 Fold Change (gene Smoc1): 1.192 | Log2 Fold Change (gene Smtn): -0.3608 | Log2 Fold Change (gene Smurf2): -0.2527 | Log2 Fold Change (gene Snai1): 0.395 | Log2 Fold Change (gene Snta1): 0.9332 | Log2 Fold Change (gene Sod3): 0.8371 | Log2 Fold Change (gene Sorcs2): -0.6842 | Log2 Fold Change (gene Sord): 0.2806 | Log2 Fold Change (gene Sox9): -0.5093 | Log2 Fold Change (gene Sp100): 0.4955 | Log2 Fold Change (gene Sparcl1): 0.6451 | Log2 Fold Change (gene Spire1): -0.3218 | Log2 Fold Change (gene Spout1): -0.2134 | Log2 Fold Change (gene Src): -0.3248 | Log2 Fold Change (gene Srl): 0.3631 | Log2 Fold Change (gene Srsf1): -0.1632 | Log2 Fold Change (gene Ssc5d): 0.5291 | Log2 Fold Change (gene Sspn): 0.3567 | Log2 Fold Change (gene St3gal5): 0.3007 | Log2 Fold Change (gene Stambpl1): -0.2204 | Log2 Fold Change (gene Stat3): 0.52 | Log2 Fold Change (gene Stat5a): 0.5005 | Log2 Fold Change (gene Stra6): -1.42 | Log2 Fold Change (gene Styk1): 0.3717 | Log2 Fold Change (gene Suv39h1): -0.2075 | Log2 Fold Change (gene Syt13): -1.0829 | Log2 Fold Change (gene Tapbp): 0.4064 | Log2 Fold Change (gene Tars): -0.2595 | Log2 Fold Change (gene Tbrg4): -0.213 | Log2 Fold Change (gene Tceal9): 0.2274 | Log2 Fold Change (gene Tcof1): -0.2054 | Log2 Fold Change (gene Tgfb2): 0.4696 | Log2 Fold Change (gene Thbs1): 1.182 | Log2 Fold Change (gene Thbs2): 0.8061 | Log2 Fold Change (gene Thbs4): 1.132 | Log2 Fold Change (gene Them6): 0.6526 | Log2 Fold Change (gene Thy1): 0.2337 | Log2 Fold Change (gene Timp3): 0.6248 | Log2 Fold Change (gene Timp4): 1.073 | Log2 Fold Change (gene Tm7sf3): 0.2578 | Log2 Fold Change (gene Tmcc3): -0.6032 | Log2 Fold Change (gene Tmem44): 0.8313 | Log2 Fold Change (gene Tmem45a): 0.6358 | Log2 Fold Change (gene Tmem59): 0.233 | Log2 Fold Change (gene Tmem106b): 0.4399 | Log2 Fold Change (gene Tmem123): 0.2229 | Log2 Fold Change (gene Tmem158): 0.419 | Log2 Fold Change (gene Tmem179): -0.7208 | Log2 Fold Change (gene Tnnc1): 0.9845 | Log2 Fold Change (gene Tnr): 1.261 | Log2 Fold Change (gene Tnrc18): 0.3176 | Log2 Fold Change (gene Tns1): 0.3282 | Log2 Fold Change (gene Tppp): 1.04 | Log2 Fold Change (gene Traf5): 0.5172 | Log2 Fold Change (gene Trafd1): 0.3731 | Log2 Fold Change (gene Trim8): -0.1948 | Log2 Fold Change (gene Trmt1): -0.224 | Log2 Fold Change (gene Trp53inp1): 0.6461 | Log2 Fold Change (gene Tspan3): 0.1875 | Log2 Fold Change (gene Ttyh3): 0.3329 | Log2 Fold Change (gene Tubb3): -0.6269 | Log2 Fold Change (gene Twnk): -0.3138 | Log2 Fold Change (gene Txlnb): 0.4916 | Log2 Fold Change (gene Txnip): 0.7687 | Log2 Fold Change (gene Uck2): -0.1684 | Log2 Fold Change (gene Usp20): 0.3539 | Log2 Fold Change (gene Utp20): -0.2668 | Log2 Fold Change (gene Vars): -0.2196 | Log2 Fold Change (gene Vasn): 0.2551 | Log2 Fold Change (gene Wincr1): -0.6443 | Log2 Fold Change (gene Wls): 0.2525 | Log2 Fold Change (gene Xbp1): 0.2279 | Log2 Fold Change (gene Xist): -0.9006 | Log2 Fold Change (gene Zbtb4): 0.3372 | Log2 Fold Change (gene Zbtb12): -0.239 | Log2 Fold Change (gene Zfand5): 0.185 | Log2 Fold Change (gene Zfp52): -0.3705 | Log2 Fold Change (gene Zfp65): 0.3915 | Log2 Fold Change (gene Zfp747): -0.457 | Log2 Fold Change (gene Zfyve1): 0.2502 | Log2 Fold Change (gene Zhx1): 0.2955 | Log2 Fold Change (gene mt-Rnr2): 0.4083
